Results reported in PubChem BioAssay AID504834 (National Center for Advancing Translational Sciences (NCATS), 2011).
About 22,000 (6.9%) of roughly 320,000 compounds were called active. The inconclusive results got no clear call from the source; some entries with a clear call stand among them for comparison. Calls come from the whole dose curve; as a rule, active = well fitted inhibition curve with a large enough effect; inconclusive = small, poorly fitted or top-dose-only effect, or another doubt; inactive = no such curve, though single readings can be large or run the other way. Potencies of inconclusive entries are doubtful fits and often do not repeat.

assay: Primary qHTS for delayed death inhibitors of the malarial parasite plastid, 96 hour incubation; conditions: P. falciparum luciferase reporter growth; series mostly up to 28.7 µM
Outline: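 Luminescence readout: decreased luciferase signal marks inhibited growth of reporter-expressing P. falciparum in infected red cells (2% hematocrit, 0.05% parasitemia final), exposed to compound two generations (96 h, 37 C, 5% CO2).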
Potency is the fitted concentration of half-maximal effect.

Row | SMILES | Potency
1 | c1ccc2[nH]c(-c3ccnc4ccccc34)nc2c1 | inconclusive: 11.7 µM [inhibitor, single point]
2 | COc1ccc(C(=O)Nc2ccccc2C(=O)O)cc1Cl | inactive
3 | O=C(NCC(c1ccco1)N1CCCC1)c1ccc(Cl)c(S(=O)(=O)N2CCc3ccccc32)c1 (stereo not drawn) | inconclusive: 2.62 µM [inhibitor, full curve, poor fit]
4 | Cc1ccc(-c2nc3c(Cl)cc(Cl)cc3c(=O)n2O)cc1 | inconclusive: 0.415 µM [inhibitor, full curve, poor fit]
5 | COCCCN(C(=O)Cc1coc2cc(C)c(C)cc12)c1c(N)n(Cc2ccccc2)c(=O)[nH]c1=O | inconclusive: 18.5 µM [inhibitor, single point]
6 | O=S(=O)(c1ccc(F)cc1)N1CCN=C1SCc1cccc(F)c1 | inconclusive: 18.5 µM [inhibitor, single point]
7 | Cc1ccccc1OCCN1C(=O)c2ccccc2C1=O | inactive
8 | Cc1cccc(NC(=S)N(CCN2CCOCC2)Cc2cc3cc4c(cc3[nH]c2=O)OCO4)c1 | inconclusive: 1.17 µM [inhibitor, full curve, poor fit]
9 | Cc1c(NC(=O)CN(c2ccc(F)cc2)S(=O)(=O)c2ccccc2)c(=O)n(-c2ccccc2)n1C | inconclusive: 10.4 µM [inhibitor, single point]
10 | CCc1nn(CCCC(=O)NCc2ccccc2Br)c(=O)c2cc3occc3n12 | inactive
11 | CN(C)/C=C/C(=O)c1ccc(S(=O)(=O)c2ccccc2)cc1 | inconclusive: 5.22 µM [inhibitor, partial curve]
12 | CCSc1nc2c(c(=O)[nH]1)C(c1ccccn1)C1=C(CC(C)(C)CC1=O)N2 (stereo not drawn) | inconclusive: 11.7 µM [inhibitor, partial curve, poor fit]
13 | Cc1cccn2c(=O)c3cc(C(=O)NC(C)c4ccccc4)c(=N)n(CCCn4ccnc4)c3nc12 (stereo not drawn) | active: 0.415 µM
14 | COc1ccc(N(CC(=O)Nc2ccccc2OC)S(=O)(=O)c2ccc(NC(C)=O)cc2)cc1 | inconclusive: 18.5 µM [inhibitor, single point]
15 | COc1ccc(C(=O)N(C)C2CCCN(Cc3ccccc3F)C2)cc1C (stereo not drawn) | active: 5.22 µM
16 | O=C(COC(=O)c1cc(S(=O)(=O)N2CCCC2)ccc1O)NCc1ccccc1 | inactive
17 | CCn1c2ccccc2c2cc(NC(=O)CSc3nnc(-c4ccc(OC)c(OC)c4)n3N)ccc21 | inconclusive: 0.465 µM [inhibitor, full curve, poor fit]
18 | Cc1ccc(SCc2c(C(=O)N/N=C/c3ccoc3)nnn2-c2nonc2N)cc1 | inactive
19 | CCCCN(CC)C(=O)c1oc2ccc(S(=O)(=O)N3CCCC3)cc2c1C | active: 13.1 µM
20 | O=C1NC(=NCc2ccccc2)S/C1=C/c1ccc(O)cc1 | inconclusive: 2.62 µM [inhibitor, partial curve]
21 | COc1ccc(NC(=O)CCNS(=O)(=O)c2cccc3nonc23)cc1 | inactive
22 | CCOc1ccc(NC(=O)CN(C)C(=O)c2ccccc2Cc2ccccc2)cc1OCC | inconclusive: 8.28 µM [inhibitor, partial curve, poor fit]

Row | SMILES | Potency
23 | COCCn1c(SCC(=O)c2ccc3c(c2)OCCO3)nnc1C(C)C | inactive
24 | CN(CC(=O)Nc1ccc2c(c1)OCCO2)S(=O)(=O)c1ccc(F)cc1 | inconclusive: 7.38 µM [inhibitor, partial curve, poor fit]
25 | O=C(CN1CCc2ccccc2C1)Nc1cccc(S(=O)(=O)N2CCOCC2)c1 | inconclusive: 18.5 µM [inhibitor, single point]
26 | CN(CC1CCCO1)S(=O)(=O)c1ccc(C(=O)Nc2nnc(-c3ccccc3)o2)cc1 (stereo not drawn) | inconclusive: 16.5 µM [inhibitor, single point]
27 | Cc1ccc2c(CC(=O)Nc3ccc(F)c(S(=O)(=O)N4CCOCC4)c3)coc2c1 | inconclusive: 10.4 µM [inhibitor, partial curve]
28 | O=C(NC(=S)NNC(=O)c1ccccc1O)c1cccs1 | inactive
29 | Nc1ccc(Cl)cc1/C(=N/O)c1ccccc1 | inconclusive: 0.147 µM [inhibitor, full curve, poor fit]
30 | Cc1cc(S(=O)(=O)N2CCOCC2)ccc1OCC(=O)Nc1ccc(Br)cc1F | inconclusive: 14.7 µM [inhibitor, partial curve]
31 | COc1ccc(NC(=O)c2cccs2)cc1C(=O)N1CCN(c2ccccc2)CC1 | inactive
32 | CC1CCc2sc(C(=O)NCc3ccccn3)cc2C1 (stereo not drawn) | inactive
33 | COCCn1c(SCC(=O)N2CCCCC2)nc2c(c1=O)SC(C)C2 (stereo not drawn) | inconclusive: 20.8 µM [inhibitor, single point]
34 | CCc1cccc(NC(=O)CN(C)S(=O)(=O)c2cccc3nsnc23)c1 | inconclusive: 0.415 µM [inhibitor, full curve, poor fit]
35 | COc1cc(/C=C/C(=O)c2ccc(Cl)s2)cc(OC)c1O | inconclusive: 18.5 µM [inhibitor, single point]
36 | O=C(NC(=S)Nc1cc(C(F)(F)F)ccc1Cl)c1ccccc1 | inconclusive: 18.5 µM [inhibitor, single point]
37 | CCOCCCNC(=O)C1CCCN(S(=O)(=O)CC)C1 (stereo not drawn) | inconclusive: 18.5 µM [inhibitor, single point]
38 | CCc1cccc(C)c1NC(=O)c1cccc(N(C)C)c1 | inconclusive: 0.0329 µM [inhibitor, full curve, poor fit]
39 | OCCCNc1ncnc2sc3c(c12)CCN(Cc1ccccc1)C3 | inconclusive: 18.5 µM [inhibitor, single point]
40 | Cc1ccc(Nc2nc(NCCCN3CCOCC3)nc(N)c2[N+](=O)[O-])cc1C | inconclusive: 9.28 µM [inhibitor, partial curve, poor fit]
41 | Cc1ccc(N=Nc2c(C)[nH]n(-c3ccccc3)c2=O)c(C)c1 | inactive
42 | O=C(NC(Cc1ccccc1)C(=O)N1CCCC(C(F)(F)F)C1)c1ccccc1 (stereo not drawn) | inconclusive: 18.5 µM [inhibitor, single point]
43 | CCN(CC)S(=O)(=O)c1ccc(C(=O)Nc2nnc(NC(=S)Nc3ccccc3)s2)cc1 | inconclusive: 10.4 µM [inhibitor, single point]

Some values from the list:
For Potency, CCc1nn(CCCC(=O)NCc2ccccc2Br)c(=O)c2cc3occc3n12 is listed with inactive
For Potency, OCCCNc1ncnc2sc3c(c12)CCN(Cc1ccccc1)C3 is listed with inconclusive: 18.5 µM [inhibitor, single point]
For Potency, Cc1cc(S(=O)(=O)N2CCOCC2)ccc1OCC(=O)Nc1ccc(Br)cc1F is listed with inconclusive: 14.7 µM [inhibitor, partial curve]
